Laboratory results from publication PMC9459147.
These are yes or no findings as the source states them, for the method shown. In cells and extracts the contact can be indirect. Some results given as binding are weak or reduced against the parent protein; the word gives no strength.

The chains behind the UniProt entries cited, without tags or fusion partners. Residues count along the entry.
UniProt Q3TTA7: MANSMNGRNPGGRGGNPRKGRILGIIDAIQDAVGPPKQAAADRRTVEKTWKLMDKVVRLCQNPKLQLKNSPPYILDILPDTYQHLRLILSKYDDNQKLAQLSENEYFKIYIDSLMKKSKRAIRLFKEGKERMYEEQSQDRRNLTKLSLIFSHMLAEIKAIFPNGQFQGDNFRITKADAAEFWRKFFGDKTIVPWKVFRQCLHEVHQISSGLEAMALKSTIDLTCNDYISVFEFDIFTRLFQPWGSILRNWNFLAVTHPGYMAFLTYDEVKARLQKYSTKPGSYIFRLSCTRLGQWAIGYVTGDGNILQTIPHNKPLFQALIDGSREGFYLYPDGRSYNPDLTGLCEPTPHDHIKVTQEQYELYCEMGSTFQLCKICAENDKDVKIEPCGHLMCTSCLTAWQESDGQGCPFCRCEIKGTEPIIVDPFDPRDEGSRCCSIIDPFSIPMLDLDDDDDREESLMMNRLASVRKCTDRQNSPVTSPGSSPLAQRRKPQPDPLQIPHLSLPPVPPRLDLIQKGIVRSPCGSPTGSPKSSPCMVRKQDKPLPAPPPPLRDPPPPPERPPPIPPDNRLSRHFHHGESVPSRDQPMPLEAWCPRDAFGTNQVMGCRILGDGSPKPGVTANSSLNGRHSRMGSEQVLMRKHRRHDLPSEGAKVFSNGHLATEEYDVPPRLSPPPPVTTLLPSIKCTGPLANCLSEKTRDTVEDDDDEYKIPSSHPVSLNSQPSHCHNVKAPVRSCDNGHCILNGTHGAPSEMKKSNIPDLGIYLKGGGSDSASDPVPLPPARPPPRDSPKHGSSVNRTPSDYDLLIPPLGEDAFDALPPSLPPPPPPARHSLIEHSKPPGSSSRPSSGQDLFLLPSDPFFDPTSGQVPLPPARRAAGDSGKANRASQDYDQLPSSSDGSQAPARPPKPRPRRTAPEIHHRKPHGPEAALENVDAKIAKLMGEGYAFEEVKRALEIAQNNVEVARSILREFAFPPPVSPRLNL
UniProt Q01705, residues 19-2531: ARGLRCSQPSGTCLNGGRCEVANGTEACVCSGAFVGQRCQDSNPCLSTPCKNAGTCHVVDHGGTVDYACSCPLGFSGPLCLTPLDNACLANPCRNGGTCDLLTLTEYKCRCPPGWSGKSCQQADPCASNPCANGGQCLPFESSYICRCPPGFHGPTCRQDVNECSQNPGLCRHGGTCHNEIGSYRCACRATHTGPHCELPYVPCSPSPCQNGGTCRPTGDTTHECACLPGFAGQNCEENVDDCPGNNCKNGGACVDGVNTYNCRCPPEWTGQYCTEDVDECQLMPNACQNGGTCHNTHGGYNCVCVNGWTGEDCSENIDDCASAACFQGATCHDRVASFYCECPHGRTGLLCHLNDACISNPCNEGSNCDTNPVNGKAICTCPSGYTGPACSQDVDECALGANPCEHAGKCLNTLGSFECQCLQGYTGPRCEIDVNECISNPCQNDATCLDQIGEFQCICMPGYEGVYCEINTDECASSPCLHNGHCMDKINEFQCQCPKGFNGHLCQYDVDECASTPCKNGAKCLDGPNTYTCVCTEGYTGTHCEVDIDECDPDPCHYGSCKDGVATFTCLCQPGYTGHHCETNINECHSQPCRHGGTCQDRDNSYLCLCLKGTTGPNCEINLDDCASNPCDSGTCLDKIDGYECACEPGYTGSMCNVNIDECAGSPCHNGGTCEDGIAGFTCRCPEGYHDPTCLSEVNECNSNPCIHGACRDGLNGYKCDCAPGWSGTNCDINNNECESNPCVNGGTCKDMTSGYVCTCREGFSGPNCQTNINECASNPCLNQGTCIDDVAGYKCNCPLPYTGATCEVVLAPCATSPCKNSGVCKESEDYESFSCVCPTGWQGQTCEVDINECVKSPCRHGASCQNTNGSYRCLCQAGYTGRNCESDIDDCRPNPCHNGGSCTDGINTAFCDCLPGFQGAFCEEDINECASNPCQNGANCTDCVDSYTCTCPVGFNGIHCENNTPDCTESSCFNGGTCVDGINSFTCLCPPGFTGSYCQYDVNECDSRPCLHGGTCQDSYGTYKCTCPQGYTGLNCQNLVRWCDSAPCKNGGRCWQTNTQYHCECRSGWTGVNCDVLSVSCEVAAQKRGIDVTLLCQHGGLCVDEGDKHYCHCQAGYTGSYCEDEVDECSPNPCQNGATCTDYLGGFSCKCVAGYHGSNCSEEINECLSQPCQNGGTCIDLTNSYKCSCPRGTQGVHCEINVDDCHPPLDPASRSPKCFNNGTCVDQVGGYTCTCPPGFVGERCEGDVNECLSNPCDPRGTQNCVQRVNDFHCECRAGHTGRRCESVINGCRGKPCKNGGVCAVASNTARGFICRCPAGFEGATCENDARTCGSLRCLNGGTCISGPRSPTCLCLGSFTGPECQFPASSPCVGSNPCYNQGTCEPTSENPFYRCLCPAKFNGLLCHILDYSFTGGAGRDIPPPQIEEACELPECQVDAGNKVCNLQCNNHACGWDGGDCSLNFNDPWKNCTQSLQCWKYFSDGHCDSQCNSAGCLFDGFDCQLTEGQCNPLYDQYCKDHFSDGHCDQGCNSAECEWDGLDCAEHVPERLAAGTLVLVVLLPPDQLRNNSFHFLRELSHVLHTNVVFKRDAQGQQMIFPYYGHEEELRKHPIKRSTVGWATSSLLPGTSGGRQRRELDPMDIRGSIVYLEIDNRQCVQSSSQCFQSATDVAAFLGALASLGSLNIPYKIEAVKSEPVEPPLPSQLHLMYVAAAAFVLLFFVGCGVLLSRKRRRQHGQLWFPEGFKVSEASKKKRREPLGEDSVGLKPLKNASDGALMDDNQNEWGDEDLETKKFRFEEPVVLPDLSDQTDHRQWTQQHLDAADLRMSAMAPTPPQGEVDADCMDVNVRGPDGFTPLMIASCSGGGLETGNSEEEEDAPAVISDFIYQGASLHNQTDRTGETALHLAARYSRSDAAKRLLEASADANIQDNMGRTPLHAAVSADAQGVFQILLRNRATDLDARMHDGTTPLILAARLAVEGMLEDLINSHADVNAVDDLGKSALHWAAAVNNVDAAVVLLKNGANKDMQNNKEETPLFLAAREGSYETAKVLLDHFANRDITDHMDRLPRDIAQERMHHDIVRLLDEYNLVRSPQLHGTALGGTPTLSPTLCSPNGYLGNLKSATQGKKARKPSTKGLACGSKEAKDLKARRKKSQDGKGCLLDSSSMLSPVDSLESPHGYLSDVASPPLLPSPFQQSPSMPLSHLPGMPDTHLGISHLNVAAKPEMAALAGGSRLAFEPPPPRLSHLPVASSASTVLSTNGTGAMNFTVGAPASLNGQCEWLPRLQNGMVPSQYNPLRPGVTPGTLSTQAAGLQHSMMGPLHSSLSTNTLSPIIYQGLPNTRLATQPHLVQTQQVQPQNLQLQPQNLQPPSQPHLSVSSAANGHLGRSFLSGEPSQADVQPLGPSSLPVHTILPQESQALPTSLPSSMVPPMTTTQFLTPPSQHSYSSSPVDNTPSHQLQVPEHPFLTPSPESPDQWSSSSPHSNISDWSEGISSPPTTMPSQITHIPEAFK
UniProt Q8BGG7: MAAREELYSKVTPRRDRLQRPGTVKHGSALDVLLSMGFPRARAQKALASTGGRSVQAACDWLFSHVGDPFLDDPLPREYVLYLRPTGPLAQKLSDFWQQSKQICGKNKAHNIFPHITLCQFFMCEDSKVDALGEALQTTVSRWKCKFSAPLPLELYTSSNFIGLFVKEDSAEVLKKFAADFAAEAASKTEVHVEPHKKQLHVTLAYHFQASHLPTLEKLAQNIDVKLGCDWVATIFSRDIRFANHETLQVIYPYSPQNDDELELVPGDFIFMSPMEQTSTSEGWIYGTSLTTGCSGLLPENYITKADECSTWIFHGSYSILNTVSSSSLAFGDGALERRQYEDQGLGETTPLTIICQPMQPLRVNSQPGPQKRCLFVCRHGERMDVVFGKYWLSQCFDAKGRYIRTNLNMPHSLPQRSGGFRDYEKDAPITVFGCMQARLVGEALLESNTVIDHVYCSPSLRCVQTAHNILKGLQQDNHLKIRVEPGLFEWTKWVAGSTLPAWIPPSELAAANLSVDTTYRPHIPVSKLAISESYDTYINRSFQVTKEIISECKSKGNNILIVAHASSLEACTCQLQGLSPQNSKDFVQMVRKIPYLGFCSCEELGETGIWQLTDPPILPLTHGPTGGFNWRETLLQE

Biological target: Casitas B-lineage lymphoma b (Cbl-b), endogenous (mouse (endogenous in primary CD8+ T-cells)) (UniProt Q3TTA7)
Test: co-IP; endogenous proteins; lysate of primary activated mouse CD8+ T-cells (Pierce IP lysis buffer); Cbl-b immunoprecipitated (anti-Cbl-b G1, Protein A/G magnetic beads), Notch1 and STS-1 co-detected by blot; beads without antibody as negative control (Supplementary Figure 3)

| binding | Substance |
| --- | --- |
| binds | Notch1 (endogenous, primary mouse CD8+ T-cells) (from UniProt Q01705 19-2531) (receptor) |
| binds | Suppressor of T-cell receptor signaling 1 (STS-1), endogenous (from UniProt Q8BGG7 1-638) (enzyme) |
